No constants are given. Whether binding was seen depends on the method and setting. Binding seen in cells or lysates may run through a third protein. Some entries that bind do so weakly or less than the wild type. For part of these data: Tags and fused reporters may be left off the sequences shown. Each block holds one molecule with its values, some of them ahead of it.
Key:
[1] = molecular target: RNF13 (co-IP with STING, Supplementary Fig. 6a) (UniProt O43567); assay: co-IP; cells transfected with the indicated plasmids for 24 h (HEK293T in Fig. 9b); IP lysis buffer 20 mM Tris-HCl pH 7.4, 150 mM NaCl, 1 mM EDTA, 1% NP-40; protein A/G agarose beads and primary antibody at 4 °C overnight; washed with buffer containing 150 mM or 300 mM NaCl; immunoblot
[2] = molecular target: HA-RNF13 (RING finger protein 13) (UniProt O43567); assay: as above
[3] = molecular target: RNF13 (in vitro pull-down, Supplementary Fig. 6d) (UniProt O43567); assay: pull-down; in vitro pull-down analysis (Supplementary Fig. 6d); not described in the methods

Protein sequences, listed by entry. Tags and fused reporters are not part of them. Residues count along the entry.
UniProt O43567, residues 35-381: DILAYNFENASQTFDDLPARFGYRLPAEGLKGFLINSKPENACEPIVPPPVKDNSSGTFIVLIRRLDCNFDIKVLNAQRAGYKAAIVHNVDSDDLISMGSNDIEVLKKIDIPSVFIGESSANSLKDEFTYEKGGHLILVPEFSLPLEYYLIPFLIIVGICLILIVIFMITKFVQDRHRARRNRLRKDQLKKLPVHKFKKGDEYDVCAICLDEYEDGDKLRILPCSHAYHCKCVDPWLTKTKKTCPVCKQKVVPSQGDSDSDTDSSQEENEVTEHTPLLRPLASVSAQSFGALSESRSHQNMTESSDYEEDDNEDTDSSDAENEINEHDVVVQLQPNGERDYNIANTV
UniProt Q86WV6: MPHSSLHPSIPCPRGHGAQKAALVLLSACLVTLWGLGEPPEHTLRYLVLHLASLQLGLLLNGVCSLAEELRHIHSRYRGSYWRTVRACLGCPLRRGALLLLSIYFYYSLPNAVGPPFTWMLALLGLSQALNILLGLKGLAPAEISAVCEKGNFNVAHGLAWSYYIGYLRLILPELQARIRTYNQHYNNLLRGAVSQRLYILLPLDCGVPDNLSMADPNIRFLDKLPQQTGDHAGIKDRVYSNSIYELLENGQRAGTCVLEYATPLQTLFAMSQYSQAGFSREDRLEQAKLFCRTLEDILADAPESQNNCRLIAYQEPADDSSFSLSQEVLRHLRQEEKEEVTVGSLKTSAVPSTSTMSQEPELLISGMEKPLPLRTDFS

binding [1]: no binding
Molecule: STING (co-IP with RNF13, Supplementary Fig. 6a; interaction with TRIM29, Supplementary Fig. 7a) (from UniProt Q86WV6 1-379)

binding [2]: binds
B1: Flag-TRIM29 (tripartite motif-containing 29) (protein, UniProt Q14134 1-588)
chain: MEAADASRSNGSSPEARDARSPSGPSGSLENGTKADGKDAKTTNGHGGEAAEGKSLGSALKPGEGRSALFAGNEWRRPIIQFVESGDDKNSNYFSMDSMEGKRSPYAGLQLGAAKKPPVTFAEKGELRKSIFSESRKPTVSIMEPGETRRNSYPRADTGLFSRSKSGSEEVLCDSCIGNKQKAVKSCLVCQASFCELHLKPHLEGAAFRDHQLLEPIRDFEARKCPVHGKTMELFCQTDQTCICYLCMFQEHKNHSTVTVEEAKAEKETELSLQKEQLQLKIIEIEDEAEKWQKEKDRIKSFTTNEKAILEQNFRDLVRDLEKQKEEVRAALEQREQDAVDQVKVIMDALDERAKVLHEDKQTREQLHSISDSVLFLQEFGALMSNYSLPPPLPTYHVLLEGEGLGQSLGNFKDDLLNVCMRHVEKMCKADLSRNFIERNHMENGGDHRYVNNYTNSFGGEWSAPDTMKRYSMYLTPKGGVRTSYQPSSPGRFTKETTQKNFNNLYGTKGNYTSRVWEYSSSIQNSDNDLPVVQGSSSFSLKGYPSLMRSQSPKAQPQTWKSGKQTMLSHYRPFYVNKGNGIGSNEAP

binding [3]: binds
B2: TRIM29 (in vitro pull-down, Supplementary Fig. 6d) (protein, UniProt Q14134 1-588)
chain: B1 chain

— publication PMC10587083
